Data as given in PubChem BioAssay AID1259254 (NCATS, 2017).

Assay: 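Genome-wide screen for genes that prevent DNA re-replication in cancer cells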 (primary screen)
System: human HCT116 colorectal cancer cells
Reagent: single siRNA against human genes
Time to read-out: 3 days
Measurement: 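Nuclei stained with Hoechst and imaged; cell-cycle phase assigned by DNA content; G2 share scaled per plate, non-targeting siRNA 0%, GMNN siRNA 100%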
Direction: G2 robust z-score and G2 cells, % of GMNN control: higher = more G2 cells, more excess DNA replication
Active means: 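Active siRNAs have a G2 robust z of 5 or more median absolute deviations over the median, which in these data means about 38% or higher of GMNN control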
Here is an unselected part of about 59,000 reagents. About 1,550 of them (2.6%) count as active. 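G2 share is only a proxy for re-replication; each gene was hit by three separate siRNAs, and active genes were retested.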 Unmarked entries are inactive. Reagents against one gene are numbered here. Further read-outs or replicates are left out here. Not given: the amount of reagent.

PSENEN (presenilin enhancer, gamma-secretase subunit) #1: G2 robust z-score = -0.108; G2 cells, % of GMNN control = 2.21
PSENEN (presenilin enhancer, gamma-secretase subunit) #2: G2 robust z-score = 0.153; G2 cells, % of GMNN control = 4.04
PSENEN (presenilin enhancer, gamma-secretase subunit) #3: G2 robust z-score = 0.554; G2 cells, % of GMNN control = 6.87
DIPK2B (divergent protein kinase domain 2B) #1: G2 robust z-score = -0.859; G2 cells, % of GMNN control = -3.07
DIPK2B (divergent protein kinase domain 2B) #2: G2 robust z-score = -0.253; G2 cells, % of GMNN control = 1.19
DIPK2B (divergent protein kinase domain 2B) #3: G2 robust z-score = 2.91; G2 cells, % of GMNN control = 23.4
DIPK2B (divergent protein kinase domain 2B) #4: G2 robust z-score = -0.638; G2 cells, % of GMNN control = -1.52
DIPK2B (divergent protein kinase domain 2B) #5: G2 robust z-score = 0.173; G2 cells, % of GMNN control = 4.19
DIPK2B (divergent protein kinase domain 2B) #6: G2 robust z-score = -0.116; G2 cells, % of GMNN control = 2.15
RNF103 (ring finger protein 103) #1: G2 robust z-score = -0.804; G2 cells, % of GMNN control = -2.69
RNF103 (ring finger protein 103) #2: G2 robust z-score = -0.205; G2 cells, % of GMNN control = 1.52
RNF103 (ring finger protein 103) #3: G2 robust z-score = -0.766; G2 cells, % of GMNN control = -2.42
ARNT2 (aryl hydrocarbon receptor nuclear translocator 2) #1: G2 robust z-score = -0.461; G2 cells, % of GMNN control = -0.277
ARNT2 (aryl hydrocarbon receptor nuclear translocator 2) #2: G2 robust z-score = -0.988; G2 cells, % of GMNN control = -3.99
ARNT2 (aryl hydrocarbon receptor nuclear translocator 2) #3: G2 robust z-score = -0.492; G2 cells, % of GMNN control = -0.496

3 of these entries, reformatted.
target | reagent no. | G2 robust z-score | G2 cells, % of GMNN control
DIPK2B (divergent protein kinase domain 2B) | 6 | -0.116 | 2.15
RNF103 (ring finger protein 103) | 1 | -0.804 | -2.69
RNF103 (ring finger protein 103) | 2 | -0.205 | 1.52

Additional records follow.
JUND (JunD proto-oncogene, AP-1 transcription factor subunit) #1: G2 robust z-score = -1.25; G2 cells, % of GMNN control = -5.84
JUND (JunD proto-oncogene, AP-1 transcription factor subunit) #2: G2 robust z-score = 2.14; G2 cells, % of GMNN control = 18.1
JUND (JunD proto-oncogene, AP-1 transcription factor subunit) #3: G2 robust z-score = -0.424; G2 cells, % of GMNN control = -0.0135
BMP5 (bone morphogenetic protein 5) #1: G2 robust z-score = -1.07; G2 cells, % of GMNN control = -4.56
BMP5 (bone morphogenetic protein 5) #2: G2 robust z-score = -1.42; G2 cells, % of GMNN control = -7.02
BMP5 (bone morphogenetic protein 5) #3: G2 robust z-score = -0.243; G2 cells, % of GMNN control = 1.26
SDF2L1 (stromal cell derived factor 2 like 1) #1: G2 robust z-score = 1.01; G2 cells, % of GMNN control = 10.1
SDF2L1 (stromal cell derived factor 2 like 1) #2: G2 robust z-score = 1.24; G2 cells, % of GMNN control = 11.7
SDF2L1 (stromal cell derived factor 2 like 1) #3: G2 robust z-score = 1.83; G2 cells, % of GMNN control = 15.9
